Assay results: patent publication US10208088B1, “Low molecular polypeptide ZY4 and applications thereof” (Sichuan Synlight Biotech Ltd., priority 2015, dated 2019)

Tests used:
P. acnes ATCC6919 = details: 2 mg/ml ointment on left ear skin, treated for 1 day; 0.20 mm before treatment, PEG control 0.43 mm
P. acnes ATCC11817 = details: 2 mg/ml ointment on left ear skin, once every 8 h, 3 times, mice sacrificed 24 h later; PEG control 9.44×10^5

Structure (SMILES): CCC[C@@H]1C[C@@H](C(=O)N[C@@H]([C@H]2O[C@H](SC)[C@H](O)[C@@H](O)[C@H]2O)[C@H](C)Cl)N(C)C1 [clindamycin, reference compound]
- thickness of mice ear (P. acnes ATCC6919): 0.34 mm
- CFU of P. acnes after treatment (P. acnes ATCC11817): 5.6×10^5 CFU
